Data taken from paper PMC12675575, “A BRET biosensor for measuring uncompetitive engagement of PRMT5 complexes in cells” (Nature Communications, 2025).
Where “and” joins values, the source holds several entries; their conditions need not be identical. Equal entries are not always repeated. Further values from the same series stand in other lists.

Chains of the proteins cited; added tags and fusions are not shown.
UniProt O14744, whole entry: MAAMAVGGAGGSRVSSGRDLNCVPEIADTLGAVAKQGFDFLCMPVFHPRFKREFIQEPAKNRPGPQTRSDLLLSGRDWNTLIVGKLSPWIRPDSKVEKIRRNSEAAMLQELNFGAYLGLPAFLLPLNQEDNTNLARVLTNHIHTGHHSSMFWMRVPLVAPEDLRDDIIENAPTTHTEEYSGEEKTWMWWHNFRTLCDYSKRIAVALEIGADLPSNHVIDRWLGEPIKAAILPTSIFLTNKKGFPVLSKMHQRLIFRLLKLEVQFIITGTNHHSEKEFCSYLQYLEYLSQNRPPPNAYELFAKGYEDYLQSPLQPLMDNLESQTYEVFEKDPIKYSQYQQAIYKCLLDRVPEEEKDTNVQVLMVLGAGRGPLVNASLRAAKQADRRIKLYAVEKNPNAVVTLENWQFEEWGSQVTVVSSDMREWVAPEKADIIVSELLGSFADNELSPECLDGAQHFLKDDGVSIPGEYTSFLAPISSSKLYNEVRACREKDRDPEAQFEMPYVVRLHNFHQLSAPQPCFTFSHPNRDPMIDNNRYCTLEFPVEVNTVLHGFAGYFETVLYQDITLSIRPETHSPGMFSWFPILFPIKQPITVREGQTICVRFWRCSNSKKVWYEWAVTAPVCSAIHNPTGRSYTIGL

Experiments:
[1] = test system: MAT2A; experiment: BRET probe sensitivity to MAT2A inhibition (Compound A) in live HEK293 cells expressing NLuc-PRMT5; format: cell-based; settings: for Normalized BRET probe signal: 37 °C; for normalized BRET signal (Figure S3D): replicates
Experimental: To measure BRET probe sensitivity to both MAT2A inhibition and exogenous MTA in live cells, HEK293 cells were pre-treated with 30 nM CBH-002 and incubated at 37 °C and 5% CO2 for 2 h. For MAT2A inhibition, a 20 µM, 3-fold, 11 pt titration series of Compound A (Selleckchem) was added to wells. Cells were incubated either at 37 °C (Fig. 3D) or room temperature (Fig. S3D). Data were normalized using Eq. (2), where BRETMIN = instrument background (no CBH-002), and BRETMAX = 2 h vehicle treatment, and fit curves were generated using Eq. (1). For MTA sensitivity cells were treated with a 1 mM, 11 pt, 2-fold series of MTA (Sigma) and cells were incubated at room temperature for 2 h, reading in 15 min intervals. Data were normalized using Eq. (2), where BRETMIN = instrument background (no CBH-002), and BRETMAX = 2 h + vehicle treatment. Data were fit with Eq. (1).

[2] = target: T1, NL-PRMT5 with WDR77 (Homo sapiens, UniProt O14744); experiment: MRTX1719 kinetic washout (residence time) NanoBRET experiment in HEK293 cells; format: cell-based; settings: 100uM MTA
T1 construct: host or cells: HEK293
Experimental: On the next day, cells were resuspended in a 15 mL falcon tube and adjusted to 2 × 10^5 cells/mL in assay medium (OptiMEM with 1% FBS). […] After incubation, cells were centrifuged at 300 × g for 5 min, medium was aspirated and cells were washed with pre-warmed assay medium, centrifuged again and adjusted to 2 × 10^5 cells/mL. For the full occupancy control, MTA and compound concentrations were maintained. 34 μL of cells were added per well in a seeded into 96-well non-binding surface-treated plates (Corning), followed by addition of 36 μL of Complete 2x Substrate (prepared by combining Nano-Glo Substrate and Extracellular NanoLuc Inhibitor in Opti-MEM, according to the manufacturer’s protocol (Promega)). Then, 2 μL of ETP CBH-002 at a final concentration of 30 nM were added before immediate readout at the PheraSTAR FSX for 6 h. Readout and analysis were conducted as described earlier.

Compound: Nc1nc(=O)n(-c2ccccc2Cl)c2nc(C(F)(F)F)ccc12 [Compound A]
- Normalized BRET probe signal ([1]; Log([Compound A]) in uM 0.35, Time (h) 2): 81.29 and 84.17 and 82.16
- Normalized BRET probe signal ([1]; Log([Compound A]) in uM 0.35, Time (h) 3): 74.78 and 76.65 and 74.51
- Normalized BRET probe signal ([1]; Log([Compound A]) in uM 0.35, Time (h) 4): 62.26 and 62.98 and 64.07
- Normalized BRET probe signal ([1]; Log([Compound A]) in uM 0.35, Time (h) 5): 55.01 and 55.85 and 55.75
- Normalized BRET probe signal ([1]; Log([Compound A]) in uM 0.35, Time (h) 6): 53.89 and 53.33 and 54.16
- Normalized BRET probe signal ([1]; Log([Compound A]) in uM 0.82, Time (h) 3): 77.64 and 77.21 and 75.21
- Normalized BRET probe signal ([1]; Log([Compound A]) in uM 0.82, Time (h) 4): 63.28 and 65.60
- normalized BRET signal (Figure S3D) ([1]; Log([Compound A]) in uM -0.13, Time 0 min): 101.45 and 102.66
- normalized BRET signal (Figure S3D) ([1]; Log([Compound A]) in uM -0.13, Time 15 min): 101.09 and 100.96 and 101.38
- normalized BRET signal (Figure S3D) ([1]; Log([Compound A]) in uM -0.13, Time 30 min): 100.65 and 99.76
- normalized BRET signal (Figure S3D) ([1]; Log([Compound A]) in uM -0.13, Time 120 min): 95.66
- Normalized BRET probe signal ([1]; Log([Compound A]) in uM -0.13, Time (h) 2): 84.10 and 85.04 and 83.56
- Normalized BRET probe signal ([1]; Log([Compound A]) in uM -0.13, Time (h) 3): 76.50 and 76.23 and 75.85
- Normalized BRET probe signal ([1]; Log([Compound A]) in uM -0.13, Time (h) 4): 62.46 and 64.49 and 63.63
- Normalized BRET probe signal ([1]; Log([Compound A]) in uM -0.13, Time (h) 5): 55.18 and 55.73 and 57.18
- Normalized BRET probe signal ([1]; Log([Compound A]) in uM -0.13, Time (h) 6): 57.32 and 55.11 and 53.49
- normalized BRET signal (Figure S3D) ([1]; Log([Compound A]) in uM -0.61, Time 0 min): 105.72 and 103.08 and 103.32
- normalized BRET signal (Figure S3D) ([1]; Log([Compound A]) in uM -0.61, Time 15 min): 103.47 and 102.14 and 101.84
- normalized BRET signal (Figure S3D) ([1]; Log([Compound A]) in uM -0.61, Time 30 min): 99.34 and 103.96 and 100.84
- normalized BRET signal (Figure S3D) ([1]; Log([Compound A]) in uM -0.61, Time 45 min): 103.18 and 100.13 and 98.02
- normalized BRET signal (Figure S3D) ([1]; Log([Compound A]) in uM -0.61, Time 60 min): 102.16 and 99.31 and 97.79
- normalized BRET signal (Figure S3D) ([1]; Log([Compound A]) in uM -0.61, Time 75 min): 101.39 and 98.57 and 96.53
- normalized BRET signal (Figure S3D) ([1]; Log([Compound A]) in uM -0.61, Time 90 min): 101.80 and 98.52 and 96.46
- normalized BRET signal (Figure S3D) ([1]; Log([Compound A]) in uM -0.61, Time 120 min): 97.93 and 98.15 and 95.84
- Normalized BRET probe signal ([1]; Log([Compound A]) in uM -0.61, Time (h) 2): 83.51 and 85.74 and 83.64
- Normalized BRET probe signal ([1]; Log([Compound A]) in uM -0.61, Time (h) 3): 75.66 and 75.95 and 75.59
- Normalized BRET probe signal ([1]; Log([Compound A]) in uM -0.61, Time (h) 4): 61.74 and 61.16 and 63.36
- Normalized BRET probe signal ([1]; Log([Compound A]) in uM -0.61, Time (h) 5): 52.63 and 55.79 and 55.84
- Normalized BRET probe signal ([1]; Log([Compound A]) in uM -0.61, Time (h) 6): 55.45 and 54.15 and 54.83
- normalized BRET signal (Figure S3D) ([1]; Log([Compound A]) in uM -1.08, Time 0 min): 104.70 and 103.08 and 104.82
- normalized BRET signal (Figure S3D) ([1]; Log([Compound A]) in uM -1.08, Time 15 min): 102.51 and 102.67 and 102.75
- normalized BRET signal (Figure S3D) ([1]; Log([Compound A]) in uM -1.08, Time 30 min): 100.63 and 103.31 and 101.20
- normalized BRET signal (Figure S3D) ([1]; Log([Compound A]) in uM -1.08, Time 45 min): 101.42 and 100.39 and 99.23
- normalized BRET signal (Figure S3D) ([1]; Log([Compound A]) in uM -1.08, Time 60 min): 100.31 and 99.86 and 98.91
- normalized BRET signal (Figure S3D) ([1]; Log([Compound A]) in uM -1.08, Time 75 min): 100.47 and 99.14 and 97.88
- normalized BRET signal (Figure S3D) ([1]; Log([Compound A]) in uM -1.08, Time 90 min): 101.18 and 98.37 and 97.60
- normalized BRET signal (Figure S3D) ([1]; Log([Compound A]) in uM -1.08, Time 120 min): 99.30 and 97.69 and 96.02
- Normalized BRET probe signal ([1]; Log([Compound A]) in uM -1.08, Time (h) 2): 84.67 and 86.82 and 83.90
- Normalized BRET probe signal ([1]; Log([Compound A]) in uM -1.08, Time (h) 3): 77.56 and 76.20 and 75.54
- Normalized BRET probe signal ([1]; Log([Compound A]) in uM -1.08, Time (h) 4): 61.34 and 62.06 and 62.68
- Normalized BRET probe signal ([1]; Log([Compound A]) in uM -1.08, Time (h) 5): 54.74 and 56.09 and 56.58
- Normalized BRET probe signal ([1]; Log([Compound A]) in uM -1.08, Time (h) 6): 56.26 and 56.82 and 55.72

Compound: CSC[C@H]1O[C@@H](n2cnc3c(N)ncnc32)[C@H](O)[C@@H]1O [MTA, methylthioadenosine]
- BRET, Figure S5I ([2]; time 72 min): 1.294 and 1.339 and 1.354 and 1.349
- BRET, Figure S5I ([2]; time 78 min): 1.386 and 1.366 and 1.432 and 1.342 and 1.317 and 1.352 and 1.361 and 1.362
- BRET, Figure S5I ([2]; time 84 min): 1.398 and 1.406 and 1.438 and 1.3737 and 1.326 and 1.358 and 1.387 and 1.39
- BRET, Figure S5I ([2]; time 90 min): 1.403 and 1.384 and 1.461 and 1.374 and 1.334 and 1.369 and 1.409 and 1.416
- BRET, Figure S5I ([2]; time 96 min): 1.401 (2×) and 1.489 and 1.363 and 1.337 and 1.381 and 1.402 and 1.419
- BRET, Figure S5I ([2]; time 120 min): 1.4347 and 1.384 and 1.485 and 1.3745 and 1.37 and 1.3594 and 1.416 and 1.404
- BRET, Figure S5I ([2]; time 138 min): 1.435 and 1.4 and 1.464 and 1.387 and 1.367 and 1.363 and 1.415 and 1.419
- BRET, Figure S5I ([2]; time 150 min): 1.43 and 1.41 and 1.422 and 1.377 and 1.389 and 1.393 and 1.382 and 1.425
- BRET, Figure S5I ([2]; time 168 min): 1.45 and 1.429 and 1.495 and 1.408 and 1.43 and 1.4242 and 1.397 and 1.441
- BRET, Figure S5I ([2]; time 180 min): 1.466 and 1.4423 and 1.452 and 1.426 and 1.442 and 1.43 and 1.429 and 1.413
- BRET, Figure S5I ([2]; time 210 min): 1.464 and 1.497 and 1.494 and 1.415 and 1.481 and 1.441 and 1.4645 and 1.459
- BRET, Figure S5I ([2]; time 240 min): 1.5 and 1.574 and 1.5876 and 1.495 and 1.491 and 1.427 and 1.469 and 1.483
- BRET, Figure S5I ([2]; time 270 min): 1.65 and 1.5615 and 1.479 and 1.49 and 1.533 and 1.541 and 1.579 and 1.521
- BRET, Figure S5I ([2]; time 300 min): 1.638 and 1.6944 and 1.634 and 1.624 and 1.619 and 1.633 and 1.599 and 1.541
- BRET, Figure S5I ([2]; time 330 min): 1.755 and 1.642 and 1.651 and 1.669 and 1.659 and 1.722 and 1.59 and 1.744
